In patent US4033721A, “Analysis of gentian violet residue in tissue” (priority 1976, dated 1977):

Experiments:
[1] = Detection of 14C-gentian violet in spiked chick liver samples (Example 27)
[2] = Extraction of gentian violet residue from eggs or tissue

Row | Compound | Mean dpm/Sample ([1]; 2.7 dpm added (13.7 dpm/g)) [dpm/Sample] | Mean dpm/g ([1]; 2.7 dpm added (13.7 dpm/g)) [dpm/g] | Mean dpm/Sample ([1]; 10 dpm added (50.7 dpm/g)) [dpm/Sample] | Mean dpm/g ([1]; 10 dpm added (50.7 dpm/g)) [dpm/g] | Mean dpm/Sample ([1]; 20 dpm added (97 dpm/g)) [dpm/Sample] | Mean dpm/g ([1]; 20 dpm added (97 dpm/g)) [dpm/g] | Mean dpm/Sample ([1]; 50 dpm added (266 dpm/g)) [dpm/Sample] | Mean dpm/g ([1]; 50 dpm added (266 dpm/g)) [dpm/g] | detection limit ([1]; 95 percent confidence limits) | Mean dpm/Sample ([1]; 100 dpm added (522 dpm/g)) [dpm/Sample] | Mean dpm/g ([1]; 100 dpm added (522 dpm/g)) [dpm/g] | extraction of gentian violet residue by acidified alcohol [2] [%] | extraction of gentian violet residue by straight ethanol [2]
1 | CN(C)c1ccc(C(=C2C=CC(=[N+](C)C)C=C2)c2ccc(N(C)C)cc2)cc1 [^14 C-gentian violet] | 55.4 | 283 | 65.5 | 331 | 82.2 | 400 | 114.8 | 608 | above 4 ppb | 201.0 | 1049 |  | 
2 | CN(C)c1ccc(C(=C2C=CC(=[N+](C)C)C=C2)c2ccc(N(C)C)cc2)cc1 [gentian violet, hexamethylpararosaniline chloride] |  |  |  |  |  |  |  |  |  |  |  | ≥ 99 | at most 50%
